Test results reported in PubChem BioAssay AID192 (DTP/NCI, 2004).
The list shows only some results of the screen, not a fair sample: it gathers tests that were run many times, whatever their T/C, doses with no T/C, and many T/C values between a quarter and a half above the control. Further doses and runs are listed elsewhere. T/C gives the treated animals as a percentage of the vehicle group. Some entries give survivors of the animals treated and no T/C: the source holds a T/C of zero for them, seemingly a mark for toxic or unscored doses. Some survivor counts are full or nearly so, which does not show that the dose was tolerated: the source hardly ever lists a survival T/C far under the control, and the zero likely stands for such cases as well. Survivors were counted at the toxicity check, usually on the fifth day, unless a day is given; later deaths do not show. Schedules are NCI's codes, read here as Q, the interval in days (D) or hours (H), X, the number of doses. Additions like (4×) give the number of equal values in this list. Some doses were run more than once; the results are listed from low to high. Where survival is the endpoint, this PubChem deposit counts one and a half times the control or more as active, and values a quarter to a half above the control carry no call in these data; other NCI protocols may use other cut-offs. Some T/C values carry the count of animals alive at the toxicity check (mostly the fifth day); without a count, all were alive then.

System: BDF1 mice, B16 melanoma ip, median survival T/C
Assay: NCI In Vivo Anticancer Drug Screen. Data for tumor model B16 Melanoma (intraperitoneal) in B6D2F1 (BDF1) mice
Conditions: T/C endpoint: median survival time, higher T/C = longer survival
Summary of the method: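 Mice with transplantable tumors; drug vs vehicle groups; endpoint survival or tumor size; value = T/C.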

[1] = dose: 100.0 mg/kg/injection, schedule: Q01DX009 (ip), vehicle: Klucel (hydroxypropylcellulose) (HPC)
[2] = dose: 200.0 mg/kg/injection, schedule: Q01DX009 (ip), vehicle: Klucel (hydroxypropylcellulose) (HPC)
[3] = dose: 2.5 mg/kg/injection, schedule: Q01DX009 (ip), vehicle: saline
[4] = dose: 5.0 mg/kg/injection, schedule: Q01DX009 (ip), vehicle: saline
[5] = dose: 400.0 mg/kg/injection, schedule: Q01DX009 (ip), vehicle: Klucel (hydroxypropylcellulose) (HPC)
[6] = dose: 25.0 mg/kg/injection, schedule: Q01DX009 (ip), vehicle: Klucel (hydroxypropylcellulose) (HPC)
[7] = dose: 50.0 mg/kg/injection, schedule: Q01DX009 (ip), vehicle: Klucel (hydroxypropylcellulose) (HPC)

O=C1c2cccc3cc([N+](=O)[O-])cc(c23)C(=O)N1CCN1CCCC1
survivor count (dose: 25.0 mg/kg/injection, schedule: Q01DX009 (ip), vehicle: saline with Tween-80): 9 of 10 | survivor count (dose: 50.0 mg/kg/injection, schedule: Q01DX009 (ip), vehicle: saline with Tween-80): 10 of 10

Cc1ccc(C(=O)[O][Hg][CH2]C2COC([CH2][Hg][O]C(=O)c3ccc(C)cc3)CO2)cc1 (centres undefined)
survivor count (dose: 3.12 mg/kg/injection, schedule: Q01DX009 (ip), vehicle: Klucel (hydroxypropylcellulose) (HPC)): 10 of 10 | survivor count [1]: 3 of 10 and 5 of 10

CCCCCCCCCCOCCCCCCCCCC
survivor count (dose: 100.0 mg/kg/injection, schedule: Q01DX009 (ip), vehicle: saline with Tween-80): 10 of 10

N#CC(Nc1ccccc1)c1ccccc1 (centres undefined)
survivor count [2]: 4 of 10

CC1CN1CC(O)C(O)CN1CC1C (centres undefined)
T/C (dose: 1.0 mg/kg/injection, schedule: Q01DX009 (ip), vehicle: saline): 127 and 128 % of control | T/C (dose: 1.2 mg/kg/injection, schedule: Q01DX009 (ip), vehicle: saline): 130 % of control | T/C (dose: 1.25 mg/kg/injection, schedule: Q01DX009 (ip), vehicle: saline): 143 % of control | T/C (dose: 1.8 mg/kg/injection, schedule: Q01DX009 (ip), vehicle: saline): 135 % of control | survivor count [3]: 9 of 10 | survivor count (dose: 4.0 mg/kg/injection, schedule: Q01DX009 (ip), vehicle: saline): 10 of 10 (2×) | survivor count [4]: 10 of 10 | survivor count (dose: 8.0 mg/kg/injection, schedule: Q01DX009 (ip), vehicle: saline): 10 of 10

Cc1c(Cl)cccc1NC(=O)Nc1ccccc1Cl
survivor count (dose: 300.0 mg/kg/injection, schedule: Q01DX009 (ip), vehicle: Klucel (hydroxypropylcellulose) (HPC)): 9 of 10

CCCCCCCCCCCCNC(=O)Nc1cc(C)ccc1C
survivor count [5]: 10 of 10

COc1ccc(NC2=CC(C)(C(=O)O)OC2=O)cc1 (centres undefined)
survivor count (dose: 100.0 mg/kg/injection, schedule: Q04DX003 (ip), vehicle: saline with Tween-80): 10 of 10 | survivor count (dose: 200.0 mg/kg/injection, schedule: Q04DX003 (ip), vehicle: saline with Tween-80): 10 of 10 | survivor count (dose: 400.0 mg/kg/injection, schedule: Q04DX003 (ip), vehicle: saline with Tween-80): 10 of 10

CC(=O)NC1=C(N2CC2C)C(=O)C(NC(C)=O)=C(N2CC2C)C1=O (centres undefined)
survivor count [3]: 7 of 10 | survivor count [4]: 10 of 10

O=C(NC1CCCCC1)Oc1ccccc1-c1ccccc1
survivor count [2]: 6 of 6

COc1cc2c(cc1OC)C(CCc1ccc(Cl)cc1)N(C)CC2 (centres undefined)
survivor count [5]: 0 of 10

COc1ccc2c(c1O)-c1cccc3c1[C@@H](C2)N(CCCl)CC3
survivor count (dose: 32.0 mg/kg/injection, schedule: Q01DX009 (ip), vehicle: saline): 2 of 10 and 10 of 10 | survivor count (dose: 64.0 mg/kg/injection, schedule: Q01DX009 (ip), vehicle: saline): 0 of 10 and 1 of 10

Nc1ccccc1SC1CC(=O)N(c2ccccc2)C1=O (centres undefined)
survivor count [2]: 10 of 10 | survivor count [5]: 9 of 10

O=C1NC(=O)/C(=C/C=C/c2ccccc2)S1
survivor count (dose: 200.0 mg/kg/injection, schedule: Q01DX009 (ip), vehicle: saline with Tween-80): 10 of 10 | survivor count (dose: 400.0 mg/kg/injection, schedule: Q01DX009 (ip), vehicle: saline with Tween-80): 9 of 9

CNCCNc1ccc(NCCNC)c2c1C(=O)c1ccccc1C2=O
survivor count (dose: 16.0 mg/kg/injection, schedule: Q01DX009 (ip), vehicle: acid diluted with saline): 10 of 10 | survivor count (dose: 32.0 mg/kg/injection, schedule: Q01DX009 (ip), vehicle: acid diluted with saline): 10 of 10

C1CCN(CCC2CCCCN2)CC1 (centres undefined)
survivor count (dose: 100.0 mg/kg/injection, schedule: Q01DX009 (ip), vehicle: saline): 10 of 10

CC1OC(=O)C(C(C)C)NC(=O)C(C(C)C)OC(=O)C(C(C)C)NC(=O)C(C)OC(=O)C(C(C)C)NC(=O)C(C(C)C)OC(=O)C(C(C)C)NC(=O)C(C)OC(=O)C(C(C)C)NC(=O)C(C(C)C)OC(=O)C(C(C)C)NC1=O (centres undefined)
T/C (dose: 0.2 mg/kg/injection, schedule: Q01DX009 (ip), vehicle: DMSO): 142 % of control | T/C (dose: 0.31 mg/kg/injection, schedule: Q01DX009 (ip), vehicle: saline with Tween-80): 144 % of control | T/C (dose: 0.4 mg/kg/injection, schedule: Q01DX009 (ip), vehicle: DMSO): 136 % of control | T/C (dose: 0.62 mg/kg/injection, schedule: Q01DX009 (ip), vehicle: saline with Tween-80): 128 % of control | T/C (dose: 0.75 mg/kg/injection, schedule: Q01DX009 (ip), vehicle: saline with Tween-80): 140 % of control | survivor count (dose: 0.8 mg/kg/injection, schedule: Q01DX009 (ip), vehicle: DMSO): 0 of 10 and 8 of 10 | T/C (dose: 1.25 mg/kg/injection, schedule: Q01DX009 (ip), vehicle: saline with Tween-80): 126 % of control [9 of 10 alive] | T/C (dose: 1.5 mg/kg/injection, schedule: Q01DX009 (ip), vehicle: saline with Tween-80): 133 % of control | survivor count (dose: 1.6 mg/kg/injection, schedule: Q01DX009 (ip), vehicle: DMSO): 0 of 10 and 2 of 10 | T/C (dose: 2.5 mg/kg/injection, schedule: Q01DX009 (ip), vehicle: saline with Tween-80): 141 % of control | T/C (dose: 3.0 mg/kg/injection, schedule: Q01DX009 (ip), vehicle: Klucel (hydroxypropylcellulose) (HPC)): 125 % of control [8 of 10 alive] | T/C (dose: 3.0 mg/kg/injection, schedule: Q01DX009 (ip), vehicle: saline with Tween-80): 140 % of control | T/C (dose: 6.0 mg/kg/injection, schedule: Q01DX009 (ip), vehicle: Klucel (hydroxypropylcellulose) (HPC)): 135 % of control | survivor count (dose: 40.0 mg/kg/injection, schedule: Q01DX009 (ip), vehicle: saline with Tween-80): 8 of 10 | survivor count (dose: 80.0 mg/kg/injection, schedule: Q01DX009 (oral), vehicle: saline with Tween-80): 10 of 10

CCCC1(CCC)c2ccccc2C(CCl)(OCC)c2ccccc21
survivor count (dose: 150.0 mg/kg/injection, schedule: Q01DX009 (ip), vehicle: other): 8 of 10

C=C(OC1C(C)=C2C(C1OC(=O)CCCCCCC)C(C)(OC(C)=O)CC(OC(=O)CCC)C1(O)C2OC(=O)C1(C)O)/C(C)=C/C (centres undefined)
survivor count (dose: 0.75 mg/kg/injection, schedule: Q01DX009 (ip), vehicle: Klucel (hydroxypropylcellulose) (HPC)): 9 of 10

CCCCC#CCOCC(O)CCl (centres undefined)
T/C (dose: 12.5 mg/kg/injection, schedule: Q01DX009 (ip), vehicle: saline with Tween-80): 127 % of control | survivor count [6]: 10 of 10 | survivor count [7]: 10 of 10 | survivor count [1]: 10 of 10 | survivor count [2]: 10 of 10

C[C@]12CC[C@H]3[C@@H](CCC4=CC(=O)CC[C@@]43C)[C@@H]1CC[C@@H]2OC(=O)Cc1ccc(N(CCCl)CCCl)cc1
survivor count (dose: 256.0 mg/kg/injection, schedule: Q02DX009 (ip), vehicle: Klucel (hydroxypropylcellulose) (HPC)): 10 of 10 | survivor count (dose: 512.0 mg/kg/injection, schedule: Q02DX009 (ip), vehicle: Klucel (hydroxypropylcellulose) (HPC)): 10 of 10

COC1C(O)=C2C(=O)OC(C)(O)/C=C/C=C\C=C/C=C/C(c3ccccc3)NC(=O)/C=C/C=C/C=C/C=C/C2(C)C1O (centres undefined)
survivor count (dose: 12.5 mg/kg/injection, schedule: Q01DX009 (ip), vehicle: Klucel (hydroxypropylcellulose) (HPC)): 10 of 10 | survivor count [6]: 5 of 10 | survivor count (dose: 25.0 mg/kg/injection, schedule: Q01DX009 (ip), vehicle: other): 10 of 10 | survivor count [7]: 5 of 10 | survivor count [1]: 1 of 10

Oc1ccc(Nc2ccnc3cc(Cl)ccc23)cc1CN(CCCl)CCCl
survivor count [3]: 12 of 12 | survivor count [4]: 12 of 12 | survivor count (dose: 10.0 mg/kg/injection, schedule: Q01DX009 (ip), vehicle: saline): 12 of 12
